The target in the experiment is KaiA1 (Slr0756), yeast two-hybrid fusion (Synechocystis sp. PCC 6803) (UniProt P74644). Kind of experiment: two-hybrid; AH109 yeast; GAL4 AD and BD fusions; growth on CSM -Leu -Trp -His with 12.5 mM 3-amino-1,2,4-triazole, 6 days at 30 °C.

These are yes or no findings as the source states them, for the method shown. Some results given as binding are weak or reduced against the parent protein; the word gives no strength. Tags and fused reporters may be left off the sequences shown.

From publication PMC11372060, “Two KaiABC systems control circadian oscillations in one cyanobacterium” (Nature Communications, 2024) come the findings set out here.

B1: KaiA1 (Slr0756), yeast two-hybrid fusion (protein, UniProt P74644 1-299)
chain: MQSPLSLCLFAPEHVAHRLRSIFQGDRHYLSTFQALDDFCAFLEDKPERIDCLLVYYEANSLPVLNRLYEQGRLLPIILLEPSPSALAKTTDEHPTIVYHNAEIHLPESQWSELPTVVDRAIAHYLHLGPICTLPNQTETIPAPIVDESSQSFLLLQQRRLADKLKERLGYLGVYYKRKPSHFYRNFSPQEKQEYLEDLSSQYREIILSYFSDEGTVNDLLDQFVNQAFFADLAISQILEIHMELMDEFSQHLKLEGRSEEVLLDYRLVLIDILAHLGEMYRRSIPREDIPFDVYYQTD
On to B1, for which the binding result is listed as “binds”.
